Test results published in the supplement of paper PMC10849652.
Some of the results follow.

Protein sequences, listed by entry. Tags and fused reporters are not part of them. Lines headed by an entry give the natural chain unless they say otherwise; changes in a name come on top.
UniProt Q12968: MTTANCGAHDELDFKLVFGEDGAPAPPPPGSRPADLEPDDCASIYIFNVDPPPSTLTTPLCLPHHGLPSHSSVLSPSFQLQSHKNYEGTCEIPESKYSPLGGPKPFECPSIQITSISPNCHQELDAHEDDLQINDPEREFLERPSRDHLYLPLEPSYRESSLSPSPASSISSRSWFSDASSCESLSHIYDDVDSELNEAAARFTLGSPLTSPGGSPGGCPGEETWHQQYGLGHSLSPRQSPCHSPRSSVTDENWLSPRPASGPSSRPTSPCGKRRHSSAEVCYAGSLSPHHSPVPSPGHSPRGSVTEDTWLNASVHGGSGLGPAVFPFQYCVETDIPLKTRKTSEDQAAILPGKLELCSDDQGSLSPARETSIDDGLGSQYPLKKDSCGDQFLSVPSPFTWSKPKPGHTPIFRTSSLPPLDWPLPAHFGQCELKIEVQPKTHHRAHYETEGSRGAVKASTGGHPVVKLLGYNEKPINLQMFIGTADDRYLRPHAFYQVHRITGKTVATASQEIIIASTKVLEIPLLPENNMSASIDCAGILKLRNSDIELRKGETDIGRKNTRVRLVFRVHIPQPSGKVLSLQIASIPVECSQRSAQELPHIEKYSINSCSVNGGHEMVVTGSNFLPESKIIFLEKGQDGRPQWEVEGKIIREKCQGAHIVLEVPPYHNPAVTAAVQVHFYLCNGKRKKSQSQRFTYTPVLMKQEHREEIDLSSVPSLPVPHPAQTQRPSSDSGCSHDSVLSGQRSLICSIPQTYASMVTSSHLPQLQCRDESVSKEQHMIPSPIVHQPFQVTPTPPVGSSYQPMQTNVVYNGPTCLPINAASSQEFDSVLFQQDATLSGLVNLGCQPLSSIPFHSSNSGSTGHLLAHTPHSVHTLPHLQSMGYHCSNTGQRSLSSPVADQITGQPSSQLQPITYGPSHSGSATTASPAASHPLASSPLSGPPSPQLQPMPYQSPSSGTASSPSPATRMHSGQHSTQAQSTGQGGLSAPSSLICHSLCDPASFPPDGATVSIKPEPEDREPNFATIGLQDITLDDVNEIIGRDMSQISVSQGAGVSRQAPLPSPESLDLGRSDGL
UniProt Q8NC96: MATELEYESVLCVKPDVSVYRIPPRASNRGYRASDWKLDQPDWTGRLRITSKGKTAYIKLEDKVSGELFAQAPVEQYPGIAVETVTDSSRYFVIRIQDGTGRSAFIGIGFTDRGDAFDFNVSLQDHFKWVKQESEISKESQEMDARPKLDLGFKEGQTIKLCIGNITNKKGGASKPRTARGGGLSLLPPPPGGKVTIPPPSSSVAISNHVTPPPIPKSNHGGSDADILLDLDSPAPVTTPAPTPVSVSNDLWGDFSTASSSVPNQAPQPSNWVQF
UniProt Q13952: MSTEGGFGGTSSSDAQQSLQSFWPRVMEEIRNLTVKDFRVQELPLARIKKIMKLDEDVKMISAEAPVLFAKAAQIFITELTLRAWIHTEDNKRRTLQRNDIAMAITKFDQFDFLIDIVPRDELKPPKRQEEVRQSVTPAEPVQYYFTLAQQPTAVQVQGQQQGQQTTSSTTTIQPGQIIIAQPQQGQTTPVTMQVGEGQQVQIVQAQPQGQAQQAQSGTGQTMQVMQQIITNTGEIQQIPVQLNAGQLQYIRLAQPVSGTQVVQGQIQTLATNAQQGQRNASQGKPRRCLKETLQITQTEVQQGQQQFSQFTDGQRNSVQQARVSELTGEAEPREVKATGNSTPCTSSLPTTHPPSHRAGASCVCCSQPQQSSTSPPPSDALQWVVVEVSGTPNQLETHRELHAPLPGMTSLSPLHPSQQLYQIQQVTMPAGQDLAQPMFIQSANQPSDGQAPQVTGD
UniProt Q9H3P2, whole entry, looked up: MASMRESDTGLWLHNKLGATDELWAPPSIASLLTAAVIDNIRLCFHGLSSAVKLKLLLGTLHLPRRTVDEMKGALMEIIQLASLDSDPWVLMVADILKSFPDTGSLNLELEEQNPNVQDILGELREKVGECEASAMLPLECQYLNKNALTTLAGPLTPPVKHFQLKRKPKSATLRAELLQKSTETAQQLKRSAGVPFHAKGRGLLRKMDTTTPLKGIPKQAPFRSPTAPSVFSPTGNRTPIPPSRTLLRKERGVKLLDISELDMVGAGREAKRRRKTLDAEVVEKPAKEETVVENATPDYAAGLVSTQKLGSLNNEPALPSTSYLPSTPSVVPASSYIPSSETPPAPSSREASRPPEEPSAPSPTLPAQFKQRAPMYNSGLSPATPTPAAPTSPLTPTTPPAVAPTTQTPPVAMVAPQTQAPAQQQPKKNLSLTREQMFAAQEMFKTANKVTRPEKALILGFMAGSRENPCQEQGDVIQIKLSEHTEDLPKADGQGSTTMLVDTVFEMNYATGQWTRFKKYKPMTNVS
UniProt Q8TDX7: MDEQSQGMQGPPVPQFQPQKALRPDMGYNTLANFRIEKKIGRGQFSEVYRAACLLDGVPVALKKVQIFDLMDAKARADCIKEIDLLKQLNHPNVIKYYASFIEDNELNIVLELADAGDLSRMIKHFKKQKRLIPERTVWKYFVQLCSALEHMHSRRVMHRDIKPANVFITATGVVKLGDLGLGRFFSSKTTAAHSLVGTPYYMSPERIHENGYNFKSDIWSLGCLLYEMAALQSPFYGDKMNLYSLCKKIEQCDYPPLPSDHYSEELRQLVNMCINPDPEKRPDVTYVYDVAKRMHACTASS
UniProt O95298, whole entry, looked up: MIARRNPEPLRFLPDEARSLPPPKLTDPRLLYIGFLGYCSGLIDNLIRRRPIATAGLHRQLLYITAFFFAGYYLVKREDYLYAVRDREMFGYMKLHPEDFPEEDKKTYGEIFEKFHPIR
UniProt Q00653: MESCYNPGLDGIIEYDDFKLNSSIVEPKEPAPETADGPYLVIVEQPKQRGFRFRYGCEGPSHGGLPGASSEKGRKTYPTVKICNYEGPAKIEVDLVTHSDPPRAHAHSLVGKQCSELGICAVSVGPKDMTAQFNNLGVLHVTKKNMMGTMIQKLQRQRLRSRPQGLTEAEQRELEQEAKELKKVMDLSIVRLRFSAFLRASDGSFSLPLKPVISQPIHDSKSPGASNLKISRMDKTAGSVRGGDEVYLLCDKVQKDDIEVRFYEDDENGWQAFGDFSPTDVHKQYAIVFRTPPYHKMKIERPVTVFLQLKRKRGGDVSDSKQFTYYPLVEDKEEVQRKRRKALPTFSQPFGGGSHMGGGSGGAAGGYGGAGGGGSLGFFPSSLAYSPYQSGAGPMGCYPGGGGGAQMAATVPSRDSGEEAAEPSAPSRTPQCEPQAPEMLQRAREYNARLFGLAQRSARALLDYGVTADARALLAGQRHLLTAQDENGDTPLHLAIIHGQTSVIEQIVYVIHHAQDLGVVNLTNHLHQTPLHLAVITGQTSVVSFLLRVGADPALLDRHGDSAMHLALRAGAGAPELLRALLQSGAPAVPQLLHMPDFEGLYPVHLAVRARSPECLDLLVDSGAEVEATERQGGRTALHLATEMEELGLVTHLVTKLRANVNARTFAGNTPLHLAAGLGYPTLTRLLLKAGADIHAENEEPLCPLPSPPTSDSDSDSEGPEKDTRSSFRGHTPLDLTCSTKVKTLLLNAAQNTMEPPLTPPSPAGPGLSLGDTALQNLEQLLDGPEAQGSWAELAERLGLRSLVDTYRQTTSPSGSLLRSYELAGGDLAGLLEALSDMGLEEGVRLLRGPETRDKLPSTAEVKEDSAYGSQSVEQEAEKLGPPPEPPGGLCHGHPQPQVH
UniProt P21359: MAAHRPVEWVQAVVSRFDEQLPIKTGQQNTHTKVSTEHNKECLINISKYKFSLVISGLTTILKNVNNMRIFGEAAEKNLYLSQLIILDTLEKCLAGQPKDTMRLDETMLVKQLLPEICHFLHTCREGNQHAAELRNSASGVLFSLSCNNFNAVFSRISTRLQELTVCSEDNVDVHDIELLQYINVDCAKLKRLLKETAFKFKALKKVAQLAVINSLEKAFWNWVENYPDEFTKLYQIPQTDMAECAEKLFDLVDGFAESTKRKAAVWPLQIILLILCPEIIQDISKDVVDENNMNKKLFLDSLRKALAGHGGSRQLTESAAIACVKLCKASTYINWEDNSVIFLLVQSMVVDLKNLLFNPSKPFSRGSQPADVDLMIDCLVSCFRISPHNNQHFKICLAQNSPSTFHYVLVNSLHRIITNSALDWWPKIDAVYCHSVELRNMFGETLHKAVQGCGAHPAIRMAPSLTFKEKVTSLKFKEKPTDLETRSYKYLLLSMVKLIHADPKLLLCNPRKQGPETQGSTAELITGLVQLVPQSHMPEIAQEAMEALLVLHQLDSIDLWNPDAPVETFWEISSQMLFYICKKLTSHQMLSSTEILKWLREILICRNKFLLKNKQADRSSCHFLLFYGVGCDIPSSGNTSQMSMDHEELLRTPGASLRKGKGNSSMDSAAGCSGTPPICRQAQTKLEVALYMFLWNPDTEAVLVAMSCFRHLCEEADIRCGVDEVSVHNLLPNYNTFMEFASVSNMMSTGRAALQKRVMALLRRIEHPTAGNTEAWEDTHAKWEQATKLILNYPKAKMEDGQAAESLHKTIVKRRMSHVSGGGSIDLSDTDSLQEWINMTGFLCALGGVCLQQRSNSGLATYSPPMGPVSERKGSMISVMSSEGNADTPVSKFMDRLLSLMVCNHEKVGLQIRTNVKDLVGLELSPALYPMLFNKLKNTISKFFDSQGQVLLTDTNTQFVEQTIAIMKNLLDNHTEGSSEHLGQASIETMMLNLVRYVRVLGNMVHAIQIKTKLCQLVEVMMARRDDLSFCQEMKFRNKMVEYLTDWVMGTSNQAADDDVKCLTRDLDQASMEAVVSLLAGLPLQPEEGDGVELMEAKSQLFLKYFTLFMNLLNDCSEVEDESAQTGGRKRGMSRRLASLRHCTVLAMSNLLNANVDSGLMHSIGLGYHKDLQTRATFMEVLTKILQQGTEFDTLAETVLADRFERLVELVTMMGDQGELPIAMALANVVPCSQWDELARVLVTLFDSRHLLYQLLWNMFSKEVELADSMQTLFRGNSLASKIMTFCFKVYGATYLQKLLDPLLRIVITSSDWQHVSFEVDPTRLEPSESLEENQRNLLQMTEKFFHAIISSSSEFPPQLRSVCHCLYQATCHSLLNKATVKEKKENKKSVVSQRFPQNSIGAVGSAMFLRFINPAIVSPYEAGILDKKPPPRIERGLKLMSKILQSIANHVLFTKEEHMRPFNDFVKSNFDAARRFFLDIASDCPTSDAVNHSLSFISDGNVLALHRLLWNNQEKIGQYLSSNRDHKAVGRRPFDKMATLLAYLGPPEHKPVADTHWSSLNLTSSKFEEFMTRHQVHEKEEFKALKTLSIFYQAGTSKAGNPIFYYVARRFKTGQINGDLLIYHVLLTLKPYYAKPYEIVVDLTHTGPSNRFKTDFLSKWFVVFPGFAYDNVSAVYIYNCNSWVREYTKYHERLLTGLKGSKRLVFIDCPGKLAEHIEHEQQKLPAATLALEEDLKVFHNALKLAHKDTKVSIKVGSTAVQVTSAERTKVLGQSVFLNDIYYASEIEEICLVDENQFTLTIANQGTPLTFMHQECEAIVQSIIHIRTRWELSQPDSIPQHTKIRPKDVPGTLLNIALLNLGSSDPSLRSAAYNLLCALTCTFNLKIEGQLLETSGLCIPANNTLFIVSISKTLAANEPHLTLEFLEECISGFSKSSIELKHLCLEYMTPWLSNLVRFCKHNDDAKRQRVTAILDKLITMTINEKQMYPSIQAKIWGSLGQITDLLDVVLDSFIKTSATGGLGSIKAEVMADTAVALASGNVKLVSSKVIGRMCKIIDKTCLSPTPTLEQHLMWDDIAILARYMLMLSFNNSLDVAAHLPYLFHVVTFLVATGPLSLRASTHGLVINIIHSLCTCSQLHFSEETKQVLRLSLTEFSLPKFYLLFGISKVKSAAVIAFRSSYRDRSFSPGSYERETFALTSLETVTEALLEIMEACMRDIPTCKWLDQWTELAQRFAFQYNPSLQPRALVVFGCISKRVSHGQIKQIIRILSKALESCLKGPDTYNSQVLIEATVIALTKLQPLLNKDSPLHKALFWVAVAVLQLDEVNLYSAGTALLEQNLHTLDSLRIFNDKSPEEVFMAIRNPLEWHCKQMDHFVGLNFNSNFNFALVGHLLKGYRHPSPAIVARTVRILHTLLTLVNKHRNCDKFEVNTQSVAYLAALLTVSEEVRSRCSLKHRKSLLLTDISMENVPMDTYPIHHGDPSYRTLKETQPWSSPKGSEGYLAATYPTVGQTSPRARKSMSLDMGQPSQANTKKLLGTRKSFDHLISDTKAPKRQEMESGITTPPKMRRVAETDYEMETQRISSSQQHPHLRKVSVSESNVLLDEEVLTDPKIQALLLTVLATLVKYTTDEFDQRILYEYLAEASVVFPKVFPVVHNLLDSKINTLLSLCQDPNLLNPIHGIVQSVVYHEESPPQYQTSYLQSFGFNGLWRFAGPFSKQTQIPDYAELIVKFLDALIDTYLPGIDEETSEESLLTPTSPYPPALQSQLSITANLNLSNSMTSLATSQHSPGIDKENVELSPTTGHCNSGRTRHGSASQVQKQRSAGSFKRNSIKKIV

How the values were obtained:
Experiment in all cases: log2 fold change, soluble protein after heating vs DMSO (PISA); higher = thermal stabilisation; K562 lysate, 10 uM; active = over 0.2 and 3.5 SD of the protein, either way, in both replicates (recomputed)
[1] = compound: C#Cc1cccc(Nc2ncnc3cc(OCCOC)c(OCCOC)cc23)c1 [erlotinib]
Outline: (§1)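 Values give the log-two fold change in thermal stability against solvent controls, from duplicates. Crude K562 extract at 1 mg/mL protein, made by dounce homogenisation in PBS pH 7.4 with 1 mM MgCl2, was treated with 10 μM compound for 30 min. After 3 min heating across 48°C-58°C, aliquots were pooled, adjusted to 0.5% NP-40 at 4°C and centrifuged at 21,000xg for 90 min. The supernatant was measured by TMTpro 16plex LC-MS/MS with channel sums equalised.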

[2] = compound: C/C(=N\NC(=O)C1=CC(=CC=C1)S(=O)(=O)N2CCOCC2)/C3=C(C=CC(=C3)Cl)O
Outline: as §1

[3] = compound: C1=CC(=CC=C1C2=NC3=C(N2)C=C(C=C3)C(=O)N)OC4=CC=C(C=C4)Cl
Outline: as §1

[4] = compound: C1=CC2=C(C=CC(=C2)/C=C\3/C(=O)NC(=NCC4=CC=CS4)S3)N=C1
Outline: as §1

[5] = compound: C1=CC2=NC=CN=C2C=C1/C=C/3\C(=O)NC(=O)S3
Outline: as §1

[6] = compound: C1=CC=C(C=C1)C2=NC(=C(N2)C3=CC=NC=C3)C4=CC(=C(C=C4)Cl)O
Outline: as §1

[7] = compound: C1=CC=C2C(=C1)C3=NNC4=CC=CC(=C43)C2=O
Outline: as §1

[8] = compound: C1CCN(C1)C(=O)NC2=CC=CC(=C2)NC3=NC=C(C(=N3)NCCC4=CN=CN4)Br
Outline: as §1

[9] = compound: C1CN(CCC1(CC2=CC=C(C=C2)Cl)N)C3=NC=NC4=C3C=CN4
Outline: as §1

[10] = compound: C1COCCN1CCN2C3=CC=CC=C3N=C2NC(=O)C4=CC(=CC=C4)[N+](=O)[O-] [IRAK-1-4 Inhibitor I]
Outline: as §1

Measured: log2 fold change

NFATC3 (UniProt Q12968)
inactive: [1] -0.026 | [2] -0.023 | [3] 0.071 | [4] 0.05 | [5] -0.006 | [6] -0.009 | [7] -0.029 | [8] -0.046 | [9] -0.021 | [10] 0.008

NEXN (UniProt Q0ZGT2)
inactive: [1] 0.091 | [2] -0.011 | [3] -0.019 | [4] -0.067 | [5] -0.154 | [6] -0.144 | [7] -0.049 | [8] -0.255 | [9] 0.28 | [10] -0.133

NEBL isoform 2 (UniProt O76041)
inactive: [1] 0 | [2] 0.081 | [3] 0.045 | [4] 0.012 | [5] 0.016 | [6] 0.015 | [7] 0.003 | [8] -0.007 | [9] -0.006 | [10] -0.005

NIPSNAP2 (UniProt O75323)
inactive: [1] -0.031 | [2] 0.041 | [3] -0.073 | [4] -0.035 | [5] 0.063 | [6] -0.049 | [7] -0.033 | [8] -0.003 | [9] 0.011 | [10] -0.025

NFATC2IP (UniProt Q8NCF5)
inactive: [1] 0.001 | [2] 0.026 | [3] -0.036 | [4] 0.006 | [5] 0.016 | [6] 0.031 | [7] -0.071 | [8] 0.013 | [9] -0.016 | [10] -0.009

NDUFAF1 (UniProt Q9Y375)
inactive: [1] -0.048 | [2] -0.012 | [3] -0.006 | [4] 0.01 | [5] 0.06 | [6] -0.002 | [7] -0.057 | [8] 0 | [9] 0.015 | [10] -0.007

NKIRAS2 (UniProt Q9NYR9)
inactive: [1] 0.09 | [2] -0.03 | [3] 0.017 | [4] -0.031 | [5] 0.01 | [6] -0.011 | [7] -0.12 | [8] 0.076 | [9] 0.035 | [10] 0.055

NFKBIB (UniProt Q15653)
inactive: [1] 0.113 | [2] -0.135 | [3] 0 | [4] 0.03 | [5] 0.025 | [6] -0.026 | [7] 0.06 | [8] 0.016 | [9] -0.008 | [10] 0.052

NKTR (UniProt P30414)
inactive: [1] 0.025 | [2] -0.141 | [3] -0.076 | [4] -0.256 | [5] -0.023 | [6] -0.018 | [7] -0.255 | [8] -0.18 | [9] 0.091 | [10] 0.039

Taken from above (2 entries):
NEXN (UniProt Q0ZGT2)
inactive: [1] 0.091 | [2] -0.011 | [3] -0.019 | [4] -0.067 | [5] -0.154 | [6] -0.144 | [7] -0.049 | [8] -0.255 | [9] 0.28 | [10] -0.133

NEBL isoform 2 (UniProt O76041)
inactive: [1] 0 | [2] 0.081 | [3] 0.045 | [4] 0.012 | [5] 0.016 | [6] 0.015 | [7] 0.003 | [8] -0.007 | [9] -0.006 | [10] -0.005

Further records follow.

NIPSNAP3B (UniProt Q9BS92)
inactive: [1] -0.062 | [2] 0.078 | [3] 0.037 | [4] 0.051 | [5] 0.018 | [6] 0.016 | [7] -0.05 | [8] -0.011 | [9] -0.149 | [10] 0.041

NES (UniProt P48681)
inactive: [1] 0 | [2] 0.017 | [3] 0.015 | [4] 0.004 | [5] -0.002 | [6] 0.008 | [7] -0.015 | [8] 0.086 | [9] 0.09 | [10] -0.001

NECAP1 (UniProt Q8NC96)
inactive: [1] -0.043 | [2] -0.008 | [3] 0.031 | [4] 0.005 | [5] -0.029 | [6] 0.014 | [7] 0.002 | [8] -0.019 | [9] 0.011 | [10] 0.052

NDUFS6 (UniProt O75380)
inactive: [1] -0.02 | [2] 0.01 | [3] -0.024 | [4] -0.01 | [5] 0.001 | [6] -0.033 | [7] 0.013 | [8] 0.031 | [9] -0.003 | [10] 0.023

NDUFS3 (UniProt O75489)
inactive: [1] -0.015 | [2] -0.008 | [3] -0.036 | [4] -0.002 | [5] 0.036 | [6] -0.02 | [7] 0 | [8] 0.025 | [9] 0.011 | [10] 0.007

NFYC (UniProt Q13952)
inactive: [1] -0.022 | [2] 0.056 | [3] -0.013 | [4] -0.093 | [5] 0.024 | [6] -0.01 | [7] 0.036 | [8] -0.003 | [9] 0.005 | [10] -0.05

NELFA (UniProt Q9H3P2)
inactive: [1] -0.04 | [2] -0.018 | [3] 0.002 | [4] 0.047 | [5] 0.007 | [6] 0.007 | [7] -0.009 | [8] 0.011 | [9] -0.001 | [10] -0.017

NFYB (UniProt P25208)
inactive: [1] -0.019 | [2] -0.345 | [3] 0.063 | [4] 0.053 | [5] 0 | [6] -0.031 | [7] -0.003 | [8] -0.004 | [9] -0.032 | [10] -0.069

NIPSNAP1 (UniProt Q9BPW8)
inactive: [1] -0.064 | [2] 0.084 | [3] -0.121 | [4] -0.023 | [5] 0.013 | [6] 0.017 | [7] -0.047 | [8] -0.013 | [9] -0.044 | [10] -0.003

NLN (UniProt Q9BYT8)
inactive: [1] 0.007 | [2] -0.067 | [3] 0.029 | [4] 0 | [5] 0.024 | [6] -0.014 | [7] -0.003 | [8] 0.001 | [9] -0.004 | [10] 0

NDEL1 isoform 2 (UniProt Q9GZM8)
inactive: [1] -0.058 | [2] 0 | [3] 0.024 | [4] 0.031 | [5] -0.086 | [6] -0.033 | [7] 0.024 | [8] -0.019 | [9] -0.006 | [10] 0.001

NEK7 (UniProt Q8TDX7)
inactive: [1] -0.004 | [2] 0.042 | [3] -0.083 | [4] 0 | [5] 0.01 | [6] 0.053 | [7] 0.103 | [8] 0.011 | [9] -0.005 | [10] 0.032

NISCH (UniProt Q9Y2I1)
inactive: [1] 0.024 | [2] 0.006 | [3] 0.002 | [4] -0.006 | [5] -0.045 | [6] -0.019 | [7] -0.011 | [8] -0.002 | [9] -0.034 | [10] 0

NDUFC2 (UniProt O95298)
inactive: [1] 0.013 | [2] -0.065 | [3] -0.029 | [4] 0.027 | [5] -0.019 | [6] -0.017 | [7] -0.088 | [8] -0.058 | [9] 0.097 | [10] -0.004

NFKB2 (UniProt Q00653)
inactive: [1] -0.033 | [2] -0.138 | [3] -0.007 | [4] 0.049 | [5] -0.044 | [6] 0.028 | [7] -0.019 | [8] -0.02 | [9] -0.048 | [10] -0.01

NEFH (UniProt P12036)
inactive: [1] -0.013 | [2] -0.03 | [3] 0.014 | [4] 0.048 | [5] -0.061 | [6] -0.017 | [7] -0.031 | [8] 0.016 | [9] 0.036 | [10] -0.028

NGRN (UniProt Q9NPE2)
inactive: [1] -0.041 | [2] -0.003 | [3] 0.023 | [4] 0.033 | [5] -0.002 | [6] 0.008 | [7] -0.046 | [8] 0.06 | [9] -0.007 | [10] -0.005

NF1 (UniProt P21359)
inactive: [1] 0.072 | [2] -0.031 | [3] -0.02 | [4] -0.056 | [5] -0.008 | [6] -0.003 | [7] -0.089 | [8] 0.017 | [9] 0 | [10] 0.023

NDUFAF3 (UniProt Q9BU61)
inactive: [1] -0.011 | [2] 0.011 | [3] -0.057 | [4] -0.013 | [5] 0.096 | [6] -0.045 | [7] -0.042 | [8] 0.013 | [9] 0.019 | [10] 0.003

NLE1 (UniProt Q9NVX2)
inactive: [1] 0.002 | [2] 0.007 | [3] 0.022 | [4] -0.026 | [5] 0.006 | [6] 0.017 | [7] 0.033 | [8] 0.038 | [9] -0.017 | [10] 0.014

NFATC2 (UniProt Q13469)
inactive: [1] 0.002 | [2] 0.067 | [3] 0.014 | [4] 0.032 | [5] -0.016 | [6] 0.002 | [7] -0.144 | [8] -0.018 | [9] -0.049 | [10] 0.033
